# Experimental data taken from the supplement of paper PMC8728848.
# Some of the results follow.
# B1: LysMD3 (Homo sapiens), Q7Z3D4 (protein)
# chain: MAGRHQNRSFPLPGVQSSGQVHAFGNCSDSDILEEDAEVYELRSRGKEKVRRSTSRDRLDDIIVLTKDIQEGDTLNAIALQYCCTVADIKRVNNLISDQDFFALRSIKIPVKKFSSLTETLCPPKGRQTSRHSSVQYSSEQQEILPANDSLAYSDSAGSFLKEVDRDIEQIVKCTDNKRENLNEVVSALTAQQMRFEPDNKNTQRKDPYYGADWGIG
# Key:
# Experiment in all cases: glycan array binding signal (z-score within array); higher = stronger binding
# Conditions in all cases: glycan notation: IUPAC condensed, linker removed
# [1] = biological target: Fuc(a1-2)Gal(b1-4)GlcNAc(b1-3)Gal(b1-4)GlcNAc(b1-2)Man(a1-3)[Fuc(a1-2)Gal(b1-4)GlcNAc(b1-3)Gal(b1-4)GlcNAc(b1-2)Man(a1-6)]Man(b1-4)GlcNAc(b1-4)GlcNAc
# In short: (§1)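 Negative Z-scores can be read as non-binding. The Z-score is calculated within each array and then averaged across arrays of one protein sequence at different concentrations or buffers and across linkers. Arrays, 3228 in all, were curated from the Consortium for Functional Glycomics database and kept only where the protein sequence was available.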
# [2] = biological target: Fuc(a1-2)Gal(b1-4)GlcNAc(b1-3)Gal(b1-4)GlcNAc(b1-3)Gal(b1-4)GlcNAc
# In short: as §1
# [3] = biological target: Fuc(a1-2)Gal(b1-4)GlcNAc(b1-3)GalNAc
# In short: as §1
# [4] = biological target: Fuc(a1-2)Gal(b1-4)GlcNAc(b1-3)[Fuc(a1-2)Gal(b1-4)GlcNAc(b1-6)]GalNAc
# In short: as §1
# [5] = biological target: Fuc(a1-2)Gal(b1-4)GlcNAc(b1-3)[Fuc(a1-3)[Gal(b1-4)]GlcNAc(b1-6)]Gal(b1-4)Glc
# In short: as §1
# [6] = biological target: Fuc(a1-2)Gal(b1-4)GlcNAc(b1-6)GalNAc
# In short: as §1
# [7] = biological target: Fuc(a1-2)Gal(b1-4)GlcNAc6S
# In short: as §1
# [8] = biological target: Fuc(a1-2)Gal(b1-4)[Fuc(a1-3)]GlcNAc
# In short: as §1
# [9] = biological target: Fuc(a1-2)Gal(b1-4)[Fuc(a1-3)]GlcNAc(b1-2)Man(a1-3)[Fuc(a1-2)Gal(b1-4)[Fuc(a1-3)]GlcNAc(b1-2)Man(a1-6)]Man(b1-4)GlcNAc(b1-4)[Fuc(a1-6)]GlcNAc
# In short: as §1
# [10] = biological target: Fuc(a1-2)Gal(b1-4)[Fuc(a1-3)]GlcNAc(b1-2)[Fuc(a1-2)Gal(b1-4)[Fuc(a1-3)]GlcNAc(b1-4)]Man(a1-3)[Fuc(a1-2)Gal(b1-4)[Fuc(a1-3)]GlcNAc(b1-2)Man(a1-6)]Man(b1-4)GlcNAc(b1-4)GlcNAc
# In short: as §1
# [11] = biological target: Fuc(a1-2)Gal(b1-4)[Fuc(a1-3)]GlcNAc(b1-3)Gal(b1-4)[Fuc(a1-3)]GlcNAc
# In short: as §1
# [12] = biological target: Fuc(a1-2)Gal(b1-4)[Fuc(a1-3)]GlcNAc(b1-3)Gal(b1-4)[Fuc(a1-3)]GlcNAc(b1-3)Gal(b1-4)[Fuc(a1-3)]GlcNAc
# In short: as §1
# [13] = biological target: Fuc(a1-2)Gal(b1-4)[Fuc(a1-3)]GlcNAc(b1-3)GalNAc
# In short: as §1
# [14] = biological target: Fuc(a1-2)Gal(b1-4)[Fuc(a1-3)]GlcNAc(b1-3)[Neu5Ac(a2-6)Gal(b1-4)GlcNAc(b1-6)]Gal(b1-4)Glc
# In short: as §1
# [15] = biological target: Fuc(a1-2)Gal3S(b1-4)GlcNAc
# In short: as §1
# [16] = biological target: Fuc(a1-2)Gal6S(b1-3)GlcNAc
# In short: as §1
# [17] = biological target: Fuc(a1-2)Gal6S(b1-3)GlcNAc6S
# In short: as §1
# [18] = biological target: Fuc(a1-2)Gal6S(b1-4)Glc
# In short: as §1
# [19] = biological target: Fuc(a1-2)Gal6S(b1-4)Glc6S
# In short: as §1
# [20] = biological target: Fuc(a1-2)[Gal(a1-3)]Gal
# In short: as §1
# [21] = biological target: Fuc(a1-2)[Gal(a1-3)]Gal(b1-3)GalNAc
# In short: as §1
# [22] = biological target: Fuc(a1-2)[Gal(a1-3)]Gal(b1-3)GalNAc(b1-3)Gal(a1-4)Gal(b1-4)Glc
# In short: as §1
# [23] = biological target: Fuc(a1-2)[Gal(a1-3)]Gal(b1-3)GlcNAc
# In short: as §1
# [24] = biological target: Fuc(a1-2)[Gal(a1-3)]Gal(b1-3)GlcNAc(b1-2)Man(a1-3)[Fuc(a1-2)[Gal(a1-3)]Gal(b1-3)GlcNAc(b1-2)Man(a1-6)]Man(b1-4)GlcNAc(b1-4)GlcNAc
# In short: as §1
# [25] = biological target: Fuc(a1-2)[Gal(a1-3)]Gal(b1-3)GlcNAc(b1-2)Man(a1-3)[Fuc(a1-2)[Gal(a1-3)]Gal(b1-3)GlcNAc(b1-2)Man(a1-6)]Man(b1-4)GlcNAc(b1-4)[Fuc(a1-6)]GlcNAc
# In short: as §1
# [26] = biological target: Fuc(a1-2)[Gal(a1-3)]Gal(b1-3)GlcNAc(b1-3)GalNAc
# In short: as §1
# [27] = biological target: Fuc(a1-2)[Gal(a1-3)]Gal(b1-3)GlcNAc(b1-6)GalNAc
# In short: as §1
# [28] = biological target: Fuc(a1-2)[Gal(a1-3)]Gal(b1-4)Glc
# In short: as §1
# [29] = biological target: Fuc(a1-2)[Gal(a1-3)]Gal(b1-4)GlcNAc
# In short: as §1
# [30] = biological target: Fuc(a1-2)[Gal(a1-3)]Gal(b1-4)GlcNAc(b1-2)Man
# In short: as §1
binder,measurement,setting,value
B1,glycan array binding signal (z-score),[1],1.21
same,glycan array binding signal (z-score),[2],1.17
same,glycan array binding signal (z-score),[3],-0.526
same,glycan array binding signal (z-score),[4],0.231
same,glycan array binding signal (z-score),[5],-0.16
same,glycan array binding signal (z-score),[6],-0.955
same,glycan array binding signal (z-score),[7],0.38
same,glycan array binding signal (z-score),[8],0.707
same,glycan array binding signal (z-score),[9],1.97
same,glycan array binding signal (z-score),[10],0.445
same,glycan array binding signal (z-score),[11],-0.496
same,glycan array binding signal (z-score),[12],-0.389
same,glycan array binding signal (z-score),[13],0.4
same,glycan array binding signal (z-score),[14],0.102
same,glycan array binding signal (z-score),[15],-0.16
same,glycan array binding signal (z-score),[16],-0.832
same,glycan array binding signal (z-score),[17],-0.478
same,glycan array binding signal (z-score),[18],0.156
same,glycan array binding signal (z-score),[19],-0.415
same,glycan array binding signal (z-score),[20],0.253
same,glycan array binding signal (z-score),[21],1.27
same,glycan array binding signal (z-score),[22],-0.214
same,glycan array binding signal (z-score),[23],0.725
same,glycan array binding signal (z-score),[24],-0.581
same,glycan array binding signal (z-score),[25],0.057
same,glycan array binding signal (z-score),[26],0.213
same,glycan array binding signal (z-score),[27],-1.14
same,glycan array binding signal (z-score),[28],-0.326
same,glycan array binding signal (z-score),[29],0.797
same,glycan array binding signal (z-score),[30],-0.062

# Fetched one by one from the entries so far (2):
binder,measurement,setting,value
B1,glycan array binding signal (z-score),[21],1.27
same,glycan array binding signal (z-score),[22],-0.214
